# Several values for one entry are separate records, joined by “and”; a condition that tells them apart may be missing. Equal values may be shown once. The campaign covered roughly 320,000 compounds. About 22,000 (6.9%) were called active. Inconclusive means that the source gave no clear call. Such entries were picked first, then a sample of the others. Calls follow the shape of the dose curve; as a rule, active = well fitted inhibition curve with a large enough effect; inconclusive = small, poorly fitted or top-dose-only effect, or another doubt; inactive = no such curve, though single readings can be large or run the other way. A potency beside an inconclusive call is a rough fit, not a confirmed value. A structure can be active in one record and inactive in another.
# Experiment: Primary qHTS for delayed death inhibitors of the malarial parasite plastid, 96 hour incubation
# Conditions: P. falciparum luciferase reporter growth; series mostly up to 28.7 µM; activity change, negative = inhibition: at the top concentration
# Procedure, shortened: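 Infected RBCs, 2% Hct / 0.05% parasitemia final; luciferase-reporter P. falciparum; cpd 96 h, 37 C, 5% CO2; luciferase detection reagent; luminescence.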
# % is scaled to controls: 0 for no effect and ±100 for the full control effect; potency is read from the fitted curve at half-maximal effect.
Structure (SMILES),Potency,"activity change, negative = inhibition"
COC(=O)C1=C(c2ccccc2OCc2ccccc2)C[C@@H]2CC[C@H]1N2C(=O)NCCOc1ccccc1Cl,"inconclusive: 2.94 µM [inhibitor, partial curve, poor fit]",
CC1(C)NC(=O)N(CC(O)COc2cccc(F)c2)C1=O (stereo not drawn),"inconclusive: 18.5 µM [inhibitor, single point]",
O=C(Cn1c(=O)c2sccc2n(Cc2cccc([N+](=O)[O-])c2)c1=O)NCCc1ccccc1,"inconclusive: 4.15 µM [inhibitor, single point]",
O=C(CN1CCCC1)Nc1c(C(=O)C2CC2)oc2ccccc12,"inconclusive: 1.04 µM [inhibitor, full curve, poor fit]",
CC(C)Oc1ccc(/C(O)=C2/C(=O)C(=O)N(CCN(C)C)C2c2cccs2)cc1 (stereo not drawn),"inconclusive: 18.5 µM [inhibitor, single point]",
CN1CCN(S(=O)(=O)c2ccc(=O)[nH]c2)CC1,"inconclusive: 4.15 µM [inhibitor, partial curve, poor fit]",
COc1ccc(CNC(=O)CCS(=O)(=O)Cc2ccc(C)cc2)c(OC)c1,"inconclusive: 18.5 µM [inhibitor, single point]",
Cc1cc2nccc(-c3ccc(Cl)c([N+](=O)[O-])c3)n2n1,,inactive: 37.2%
CCn1c(=O)c2cc(C(=O)NCCN(C)C)sc2c2ccccc21,,inactive: 0.158%
Cc1cc(C)cc(NC(=O)Cn2cc(C=O)c3ccccc32)c1,"inconclusive: 18.5 µM [inhibitor, single point]",
CC12CCC(C(=O)Nc3c(Cl)cccc3Cl)(C(Br)C1=O)C2(C)C (stereo not drawn),"inconclusive: 18.5 µM [inhibitor, single point]",
CCN(CC)C(=O)c1sc(N)c(C#N)c1C,"inconclusive: 13.1 µM [inhibitor, partial curve, poor fit]",
COc1ccc(C)cc1NC(=O)c1cc(S(=O)(=O)N2CCCC2)cn1C,"inconclusive: 2.08 µM [inhibitor, single point]",
CC(NC(=S)Nc1ccccc1)C(c1cccs1)N1CCOCC1 (stereo not drawn),"inconclusive: 14.7 µM [inhibitor, partial curve]",
CCc1cc(SC#N)cc(C)c1NC(=O)CCl,"inconclusive: 14.7 µM [inhibitor, partial curve, poor fit]",
CCOC(=O)Cn1c(=O)oc2cc(S(=O)(=O)Nc3cc(Cl)ccc3OC)ccc21,,inactive: 16.4%
CN1CCN(CC(=O)N2c3ccccc3C(=O)Nc3cccnc32)CC1,inactive and active: 15.1 µM,
CC1Sc2ccc(S(=O)(=O)CCC(=O)NCc3ccccc3Cl)cc2NC1=O (stereo not drawn),"inconclusive: 18.5 µM [inhibitor, single point]",
Nc1nc(NCCOCCO)nc(Nc2cccc(F)c2)c1[N+](=O)[O-],"inconclusive: 18.5 µM [inhibitor, single point]",
COc1ccccc1CC(=O)Nc1ccc(NC(=O)c2cccs2)cc1,"inconclusive: 18.5 µM [inhibitor, single point]",
CC(Oc1cc2oc(=O)c3c(c2cc1Cl)CCCC3)C(=O)NCC1CCC(C(=O)O)CC1 (stereo not drawn),,inactive: -9.74%
CCOCCCNc1nc2c(-c3ccccc3)nnn2c2ccccc12,"inconclusive: 18.5 µM [inhibitor, single point]",
CC(C)c1ccc(OCC(=O)NC(C)c2ccccc2)cc1 (stereo not drawn),active: 13.1 µM,

Structure (SMILES),Potency,"activity change, negative = inhibition"
O=C(O)CCSCC(=O)c1ccc2c(c1)OCCO2,,inactive: 6.86%
COc1ccccc1CC1CC(=O)N(c2cccc(Cl)c2C)C1=O (stereo not drawn),,inactive: -4.12%
Cn1c(=O)c2c(nc(SCCCO)n2Cc2ccccc2Cl)n(C)c1=O,"inconclusive: 18.5 µM [inhibitor, single point]",
Cc1ccc2nc(NCC(N)=O)nc(-c3ccccc3)c2c1,"inconclusive: 9.28 µM [inhibitor, partial curve]",
Cc1ccc(CNC(=O)C2CC3Cn4c(nc5ccccc54)C3N2C)o1 (stereo not drawn),,inactive: 26.3%
CC(C)c1ccc(NC(=O)Nc2cc3sccc3n2C)cc1,"inconclusive: 0.522 µM [inhibitor, full curve, poor fit]",
COc1ccc(/C=C/c2onc(C)c2S(=O)(=O)N2CCC(C(=O)N3CCCCCC3)CC2)cc1,"inconclusive: 18.5 µM [inhibitor, single point]",
O=C(CSc1cccc[n+]1[O-])NCCCc1ccccc1,,inactive: 23.3%
COc1ccc(NC(=O)COC(=O)c2cc(C)oc2C)c([N+](=O)[O-])c1,,inactive: -25.8%
O=C(NCc1ccncc1)c1cn(-c2ccccc2)nc1-c1cccnc1,"inconclusive: 0.657 µM [inhibitor, full curve, poor fit]",
CN(C)S(=O)(=O)c1ccc(C(=O)OCC2CC2(Cl)Cl)cc1 (stereo not drawn),,inactive: 57.8%
CCc1nnc(N/N=C/c2ccc(-c3ccc([N+](=O)[O-])cc3)o2)n1N,"inconclusive: 5.86 µM [inhibitor, partial curve, poor fit]",
CCc1c(C)nc2c(-c3ccccc3)c(C)nn2c1Nc1ccc(NC(C)=O)cc1,"inconclusive: 11.7 µM [inhibitor, single point]",
COc1ccc(-c2csc(NC(=S)NC(=O)/C=C/c3ccco3)n2)cc1Br,"inconclusive: 18.5 µM [inhibitor, single point]",
O=C(O)c1cccc(NC(=S)N/N=C/c2ccccc2OCc2ccc(Br)cc2)c1,"inconclusive: 0.586 µM [inhibitor, full curve, poor fit]",
CCOc1ccc(NC(=O)[C@@H]2CCCN2C(=O)c2cccs2)cc1S(=O)(=O)N1CCOCC1,"inconclusive: 18.5 µM [inhibitor, single point]",
Cc1ccc(OCCOCCN(C)C)c(Cl)c1,"inconclusive: 18.5 µM [inhibitor, single point]",
CCCC[C@H]1COCCS(=O)(=O)N1Cc1cccc(F)c1,,inactive: 59.4%
COc1ccc(-c2nc3ccccc3c(=O)n2CCOc2cc(C)ccc2C)cc1,"inconclusive: 18.5 µM [inhibitor, single point]",
COc1ccc(S(=O)(=O)N2CCN(C(=O)Cc3ccsc3)CC2)cc1,,inactive: -0.55%
N/C(=N/OC(=O)c1ccc(Cl)cc1)c1ncc([N+](=O)[O-])s1,"inconclusive: 18.5 µM [inhibitor, single point]",
CCCc1nc2c(sc3nc4c(cc32)COC(C)(C)C4)c(=O)o1,"inconclusive: 3.7 µM [inhibitor, partial curve, poor fit]",
O=C(c1ccc(F)cc1)C1CCN(C(=O)c2ccccc2F)CC1,"inconclusive: 16.5 µM [inhibitor, single point]",

# Individual results from above:
# O=C(O)CCSCC(=O)c1ccc2c(c1)OCCO2 | activity change, negative = inhibition: inactive: 6.86%
# COc1ccc(NC(=O)COC(=O)c2cc(C)oc2C)c([N+](=O)[O-])c1 | activity change, negative = inhibition: inactive: -25.8%
# Cn1c(=O)c2c(nc(SCCCO)n2Cc2ccccc2Cl)n(C)c1=O | Potency: inconclusive: 18.5 µM [inhibitor, single point]
# Cc1ccc(CNC(=O)C2CC3Cn4c(nc5ccccc54)C3N2C)o1 (stereo not drawn) | activity change, negative = inhibition: inactive: 26.3%
# CN(C)S(=O)(=O)c1ccc(C(=O)OCC2CC2(Cl)Cl)cc1 (stereo not drawn) | activity change, negative = inhibition: inactive: 57.8%
# CCCC[C@H]1COCCS(=O)(=O)N1Cc1cccc(F)c1 | activity change, negative = inhibition: inactive: 59.4%

# (listing goes on)

Structure (SMILES),Potency,"activity change, negative = inhibition"
COc1cccc(CNC(=O)c2cc(COc3c(F)cccc3F)on2)c1,,inactive: -16.5%
Cc1[nH]c2ccccc2c1C(=O)C(=O)N1CCN(c2ccccc2F)CC1,"inconclusive: 18.5 µM [inhibitor, single point]",
CN(C)c1ccc(C(CNC(=O)c2ccccc2Br)c2c[nH]c3ccccc23)cc1 (stereo not drawn),"inconclusive: 13.1 µM [inhibitor, single point]",
CC(C)c1ccc(NC(=S)NN2C(C)CCCC2C)cc1 (stereo not drawn),active: 6.57 µM,
COc1ccc(C)cc1NC(=O)CSc1nnc(-c2ccc(C)cc2)o1,,inactive: -7.87%
O=C(N/N=C/c1ccc(N2CCOCC2)cc1)c1ccc(O)cc1,,inactive: -4.98%
COc1cc(CN2CCC(Cc3ccccc3)CC2)c([N+](=O)[O-])cc1OC,"inconclusive: 11.7 µM [inhibitor, single point]",
CCc1nn(CC(=O)NCCCc2ccccc2)c(=O)c2cc3cc(F)ccc3n12,"inconclusive: 9.28 µM [inhibitor, partial curve, poor fit]",
CCC(Sc1nc(N)c(NC(=O)c2ccc(Br)o2)c(=O)[nH]1)C(=O)O (stereo not drawn),"inconclusive: 18.5 µM [inhibitor, single point]",
CCC(C)(C(=O)NC1CCCCC1)N(Cc1cccs1)C(=O)c1ccccn1 (stereo not drawn),"inconclusive: 18.5 µM [inhibitor, single point]",
N#Cc1ccc(CN2CCN(C(=O)c3cc(C4CC4)nn3-c3ccccc3)CC2)cc1,"inconclusive: 18.5 µM [inhibitor, single point]",
COc1cc(COCC(O)CN2CCN(CCN3C(=O)c4cccc5cccc(c45)C3=O)CC2)cc(OC)c1OC (stereo not drawn),"inconclusive: 11.7 µM [inhibitor, partial curve, poor fit]",
CCOc1ccc(CN(C)C(=O)c2ccc(S(=O)(=O)N(C)c3ccccc3OC)cc2)cc1,"inconclusive: 9.28 µM [inhibitor, partial curve]",
O=C(N/N=C/c1ccc(-c2cccc(C(F)(F)F)c2)o1)c1cccc(F)c1,"inconclusive: 18.5 µM [inhibitor, single point]",
CCOC(=O)c1ccc(NC(=O)CN(C)S(=O)(=O)c2ccc(Br)s2)cc1,,inactive: 20.3%
Cn1cccc1Cc1nnc(SCC(=O)Nc2cccc(F)c2)n1CCc1ccccc1,,inactive: -8.02%
COc1ccc(N(C)S(=O)(=O)c2cccc(C(=O)NC3CCCCC3C)c2)cc1 (stereo not drawn),"inconclusive: 10.4 µM [inhibitor, single point]",
NS(=O)(=O)c1ccc(NC(=O)CCCCCN2C(=O)c3ccccc3C2=O)cc1,,inactive: 9.88%
Cc1ccc(-c2cnc3n2CCCCC3)cc1,"inconclusive: 14.7 µM [inhibitor, single point]",
Cc1ccc(CN(C)C(=O)CC2C(=O)NCCN2CC2CCCCC2)cc1 (stereo not drawn),,inactive: -3.71%
CC1CCN(S(=O)(=O)c2ccc(NC(=O)C3CC3)cc2)CC1,"inconclusive: 4.15 µM [inhibitor, partial curve, poor fit]",
COc1ccccc1OCCNC(=O)Cc1ccc(Cl)c(Cl)c1,"inconclusive: 1.31 µM [inhibitor, partial curve, poor fit]",
